Paper PMC11522691, “Structure of the turnover-ready state of an ancestral respiratory complex I” (Nature Communications, 2024)
Results are given in words; binding and its absence hold for the method and conditions named. Some entries that bind do so weakly or less than the wild type.

Experiments:
Assay in all cases: cryo-EM structure; Pd-CI purified whole from P. denitrificans membranes in DDM (His-Trap, size exclusion), reconstituted into MSP2N2 phospholipid nanodiscs with ubiquinone-10; 2.3 Å consensus map, 2.5 Å focussed map of ND4-ND5; both purified
[1] = biological target: T1, Pd-ND1 (Nqo8), core subunit of P. denitrificans complex I (Paracoccus denitrificans) (UniProt P29920)
T1 sequence: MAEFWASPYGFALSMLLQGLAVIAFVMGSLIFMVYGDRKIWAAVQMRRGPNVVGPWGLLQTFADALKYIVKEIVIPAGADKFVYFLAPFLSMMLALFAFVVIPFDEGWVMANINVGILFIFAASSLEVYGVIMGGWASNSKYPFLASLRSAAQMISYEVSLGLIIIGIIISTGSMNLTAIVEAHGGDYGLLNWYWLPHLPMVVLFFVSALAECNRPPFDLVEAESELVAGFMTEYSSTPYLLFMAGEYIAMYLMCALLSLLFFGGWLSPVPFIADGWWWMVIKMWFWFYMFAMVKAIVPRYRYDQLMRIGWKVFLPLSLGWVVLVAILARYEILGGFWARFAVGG

[2] = biological target: T2, Pd-ND3 (Nqo7), core subunit of P. denitrificans complex I (Paracoccus denitrificans) (UniProt P29919)
T2 sequence (chain, formyl-Met at the N-terminus (modelled from additional density)): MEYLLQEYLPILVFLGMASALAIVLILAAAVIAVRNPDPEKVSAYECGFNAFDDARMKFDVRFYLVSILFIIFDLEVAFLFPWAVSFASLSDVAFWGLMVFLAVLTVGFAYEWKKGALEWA

[3] = biological target: T3, Pd-ND4L (Nqo11), core subunit of P. denitrificans complex I (Paracoccus denitrificans) (UniProt P29923)
T3 sequence: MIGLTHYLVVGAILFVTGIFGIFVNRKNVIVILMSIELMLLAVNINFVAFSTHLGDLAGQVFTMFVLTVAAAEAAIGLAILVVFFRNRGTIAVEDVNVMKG

Measured: binding

B1: Pd-NDUFS2 (Nqo4), core subunit of P. denitrificans complex I (protein, UniProt P29916 1-412)
chain: MDGDIRKNSLDDGSMDALTGEQSIRNFNINFGPQHPAAHGLLRMVLELDGEIVERADPHIGLLHRGTEKLMESRTYLQNLPYLDRLDYVAPMNQEHAWCLAIERLTGTVIPRRASLIRVLYSEIGRILNHLMGVTTGAMDVGALTPPLWGFEAREELMIFYERACGARLHAAYFRPGGVHQDLPPDLLDDIEEWCERFPKLVDDLDTLLTENRIFKQRLVDIGIVTEADALDWGYTGVMVRGSGLAWDLRRSQPYECYDEFDFQIPVGRNGDCYDRYLCRMAEMRESCKIMQQAVQKLRAEPAGDVLARGKLTPPRRAEMKRDMESLIHHFKLYTEGFKVPAGEVYAAVEGPKGEFGVYLVADGTNKPWRAKLRAPGFAHLQSIDWMSRGHMLADVPAIIATLDIVFGEVDR
modifications: dimethyl-arginine at position 65
binds: [1] | [2] | [3]
